Experimental data from patent publication US20200283384A1, “ANTIBACTERIAL COMPOUNDS AND METHODS OF USE THEREOF” (Wayne State University, priority 2016, published 2020).
Some of these results come from one statement about several compounds together.

Tested on: methicillin-resistant S. aureus clinical isolates (MRSA); S. aureus (K1902)
Test: Plasmid curing at sub-inhibitory concentration
Assay type: cell-based, Staphylococcus aureus
Details: plasmid with chloramphenicol resistance gene, S. aureus (K1902) reference strain
Experimental: Plasmid curing was performed per Trevors (Trevors, 1986 Plasmid curing in bacteria. FEMS Microbiology, 32: 149-157). In brief, the clinical isolate was grown in the presence of HN18 and HN34 at the specified concentration for 18 h at 35° C. and then plated on Muller Hinton agar (MHA) plates to obtain isolated colonies. The isolated colonies were then replica plated onto MHA and MHA plates containing antibiotics. […] The percentage curing efficiency was expressed as the number of colonies with cured phenotype per 100 colonies tested. For plasmid extraction, 5 ml of an overnight culture of S. aureus strain was centrifuged and cells were subjected to 1 ml lysostaphin (20 μg/ml) for 1 hour at 35° C. prior to DNA extraction. Extraction of DNA was carried using QIAprep Spin Miniprep Kit (Qiagen) per manufacturer's instruction. DNA profile analysis was carried out by electrophoresis on 1.5% agarose gel.
The methicillin-resistant S. aureus clinical isolates (MRSA) growing in the presence of sub-inhibitory concentrations of HN18 and HN34 were taken for the evaluation for the loss of plasmids as described above. […]
Plasmid curing activity of HN18 and HN34 was also evaluated in S. aureus (K1902) which is known to harbor a 5 kb plasmid with a chloramphenicol resistance gene. […]

SMILES	Curing efficiency
Cc1[nH]c2ccccc2c1C(c1ccc(F)c(F)c1)c1c(C)[nH]c2ccccc12 [HN34]	33-50%
Fc1ccc(C(C2=CNC3C=CC=CC23)C2=C3C=CC=CC3NC2)cc1F (centres unmarked) [HN18, 3-((3,4-difluorophenyl)(2,7a-dihydro-1H-indol-3-yl)methyl)-3a,7a-dihydro-1H-indole]	33-50%
